Assay results as given in the supplement of paper PMC10849652.
The other results are listed elsewhere or left out.

Chains of the proteins cited; added tags and fusions are not shown. Lines headed by an entry give the natural chain unless they say otherwise; changes in a name come on top.
UniProt P11021: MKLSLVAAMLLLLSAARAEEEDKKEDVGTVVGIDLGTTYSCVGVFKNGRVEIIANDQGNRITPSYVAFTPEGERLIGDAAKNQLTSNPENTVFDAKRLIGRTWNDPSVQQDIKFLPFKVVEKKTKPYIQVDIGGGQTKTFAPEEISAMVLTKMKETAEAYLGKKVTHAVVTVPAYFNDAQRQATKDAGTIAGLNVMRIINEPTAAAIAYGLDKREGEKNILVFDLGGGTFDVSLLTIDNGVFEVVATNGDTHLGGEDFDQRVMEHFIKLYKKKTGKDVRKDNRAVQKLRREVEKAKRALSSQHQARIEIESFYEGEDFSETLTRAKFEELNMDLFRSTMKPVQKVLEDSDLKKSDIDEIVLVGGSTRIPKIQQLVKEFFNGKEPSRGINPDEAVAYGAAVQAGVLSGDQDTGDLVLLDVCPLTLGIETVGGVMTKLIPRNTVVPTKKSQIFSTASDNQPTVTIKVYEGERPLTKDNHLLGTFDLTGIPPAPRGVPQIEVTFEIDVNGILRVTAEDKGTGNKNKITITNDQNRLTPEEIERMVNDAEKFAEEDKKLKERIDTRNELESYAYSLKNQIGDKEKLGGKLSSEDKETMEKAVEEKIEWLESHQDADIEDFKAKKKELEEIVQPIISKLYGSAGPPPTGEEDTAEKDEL
UniProt Q3SXM5: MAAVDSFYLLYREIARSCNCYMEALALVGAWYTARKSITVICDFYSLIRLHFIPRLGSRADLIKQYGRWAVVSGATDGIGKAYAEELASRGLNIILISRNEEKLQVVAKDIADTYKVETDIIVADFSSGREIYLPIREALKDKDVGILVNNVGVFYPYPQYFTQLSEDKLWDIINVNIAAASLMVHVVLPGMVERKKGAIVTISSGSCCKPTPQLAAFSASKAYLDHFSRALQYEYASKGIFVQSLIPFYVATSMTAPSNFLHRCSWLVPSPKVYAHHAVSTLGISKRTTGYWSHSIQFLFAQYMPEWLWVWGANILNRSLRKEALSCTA
UniProt Q9NSE4: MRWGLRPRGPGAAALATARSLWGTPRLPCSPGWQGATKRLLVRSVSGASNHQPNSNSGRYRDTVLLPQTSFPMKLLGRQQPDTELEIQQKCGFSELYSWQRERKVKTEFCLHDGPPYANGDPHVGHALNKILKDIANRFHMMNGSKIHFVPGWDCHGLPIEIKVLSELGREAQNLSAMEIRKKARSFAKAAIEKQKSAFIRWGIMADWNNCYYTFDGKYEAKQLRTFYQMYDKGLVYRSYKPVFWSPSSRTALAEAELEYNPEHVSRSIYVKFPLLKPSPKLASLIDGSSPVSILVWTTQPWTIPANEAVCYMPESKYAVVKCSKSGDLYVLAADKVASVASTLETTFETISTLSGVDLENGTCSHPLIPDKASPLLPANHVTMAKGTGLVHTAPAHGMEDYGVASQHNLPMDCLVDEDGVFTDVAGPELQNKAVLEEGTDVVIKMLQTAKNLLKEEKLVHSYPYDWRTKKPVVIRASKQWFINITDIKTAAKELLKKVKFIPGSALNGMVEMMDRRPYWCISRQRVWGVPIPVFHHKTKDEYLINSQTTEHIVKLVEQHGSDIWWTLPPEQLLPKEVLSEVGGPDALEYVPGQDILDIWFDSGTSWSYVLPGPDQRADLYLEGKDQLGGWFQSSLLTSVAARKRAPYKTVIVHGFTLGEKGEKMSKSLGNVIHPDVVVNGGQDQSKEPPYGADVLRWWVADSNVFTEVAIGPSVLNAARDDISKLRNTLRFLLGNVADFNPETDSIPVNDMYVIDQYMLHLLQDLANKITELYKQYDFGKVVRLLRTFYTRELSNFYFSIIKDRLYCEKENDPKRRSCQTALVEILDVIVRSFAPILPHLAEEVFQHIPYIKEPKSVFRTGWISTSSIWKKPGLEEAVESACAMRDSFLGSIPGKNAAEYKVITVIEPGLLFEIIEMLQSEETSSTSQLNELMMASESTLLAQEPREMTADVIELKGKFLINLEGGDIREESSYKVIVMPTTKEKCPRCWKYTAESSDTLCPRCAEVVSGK
UniProt P11142, whole entry, looked up: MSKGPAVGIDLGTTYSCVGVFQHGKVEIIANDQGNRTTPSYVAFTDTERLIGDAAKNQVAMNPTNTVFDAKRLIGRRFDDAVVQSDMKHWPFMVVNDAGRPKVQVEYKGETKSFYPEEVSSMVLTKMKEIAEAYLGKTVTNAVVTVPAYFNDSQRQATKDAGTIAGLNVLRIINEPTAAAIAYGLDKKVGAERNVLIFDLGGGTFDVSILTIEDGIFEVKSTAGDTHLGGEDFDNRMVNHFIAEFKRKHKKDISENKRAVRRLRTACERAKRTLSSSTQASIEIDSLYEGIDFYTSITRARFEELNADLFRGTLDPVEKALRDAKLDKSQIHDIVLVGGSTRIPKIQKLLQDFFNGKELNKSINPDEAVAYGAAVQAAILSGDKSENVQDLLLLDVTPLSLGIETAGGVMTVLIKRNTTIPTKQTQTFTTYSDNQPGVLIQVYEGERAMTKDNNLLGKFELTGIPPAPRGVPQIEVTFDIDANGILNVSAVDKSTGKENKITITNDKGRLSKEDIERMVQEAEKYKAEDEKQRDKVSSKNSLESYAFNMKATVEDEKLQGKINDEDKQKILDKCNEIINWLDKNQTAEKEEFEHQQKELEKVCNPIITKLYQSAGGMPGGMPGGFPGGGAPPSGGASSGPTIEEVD
UniProt P51991: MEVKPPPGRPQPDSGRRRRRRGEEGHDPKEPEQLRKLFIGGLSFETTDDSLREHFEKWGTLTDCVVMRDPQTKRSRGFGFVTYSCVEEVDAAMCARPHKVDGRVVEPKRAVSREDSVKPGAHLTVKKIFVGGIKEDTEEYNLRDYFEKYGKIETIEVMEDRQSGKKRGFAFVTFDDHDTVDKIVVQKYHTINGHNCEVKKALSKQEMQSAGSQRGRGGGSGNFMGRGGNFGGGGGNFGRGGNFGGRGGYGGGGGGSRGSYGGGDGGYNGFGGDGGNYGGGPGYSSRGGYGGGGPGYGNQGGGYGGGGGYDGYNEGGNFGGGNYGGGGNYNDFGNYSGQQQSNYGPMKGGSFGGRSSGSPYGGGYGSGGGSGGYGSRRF
UniProt P52597: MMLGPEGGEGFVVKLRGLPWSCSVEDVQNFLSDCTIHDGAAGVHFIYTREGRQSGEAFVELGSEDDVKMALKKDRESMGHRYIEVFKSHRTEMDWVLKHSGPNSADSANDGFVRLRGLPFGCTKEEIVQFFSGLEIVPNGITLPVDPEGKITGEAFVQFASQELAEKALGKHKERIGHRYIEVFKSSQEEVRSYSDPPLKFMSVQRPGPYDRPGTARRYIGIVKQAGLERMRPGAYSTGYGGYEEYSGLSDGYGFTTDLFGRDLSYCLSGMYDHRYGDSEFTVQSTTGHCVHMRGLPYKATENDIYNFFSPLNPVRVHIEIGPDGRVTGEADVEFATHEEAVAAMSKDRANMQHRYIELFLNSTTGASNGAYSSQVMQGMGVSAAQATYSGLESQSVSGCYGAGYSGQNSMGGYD
UniProt O75146: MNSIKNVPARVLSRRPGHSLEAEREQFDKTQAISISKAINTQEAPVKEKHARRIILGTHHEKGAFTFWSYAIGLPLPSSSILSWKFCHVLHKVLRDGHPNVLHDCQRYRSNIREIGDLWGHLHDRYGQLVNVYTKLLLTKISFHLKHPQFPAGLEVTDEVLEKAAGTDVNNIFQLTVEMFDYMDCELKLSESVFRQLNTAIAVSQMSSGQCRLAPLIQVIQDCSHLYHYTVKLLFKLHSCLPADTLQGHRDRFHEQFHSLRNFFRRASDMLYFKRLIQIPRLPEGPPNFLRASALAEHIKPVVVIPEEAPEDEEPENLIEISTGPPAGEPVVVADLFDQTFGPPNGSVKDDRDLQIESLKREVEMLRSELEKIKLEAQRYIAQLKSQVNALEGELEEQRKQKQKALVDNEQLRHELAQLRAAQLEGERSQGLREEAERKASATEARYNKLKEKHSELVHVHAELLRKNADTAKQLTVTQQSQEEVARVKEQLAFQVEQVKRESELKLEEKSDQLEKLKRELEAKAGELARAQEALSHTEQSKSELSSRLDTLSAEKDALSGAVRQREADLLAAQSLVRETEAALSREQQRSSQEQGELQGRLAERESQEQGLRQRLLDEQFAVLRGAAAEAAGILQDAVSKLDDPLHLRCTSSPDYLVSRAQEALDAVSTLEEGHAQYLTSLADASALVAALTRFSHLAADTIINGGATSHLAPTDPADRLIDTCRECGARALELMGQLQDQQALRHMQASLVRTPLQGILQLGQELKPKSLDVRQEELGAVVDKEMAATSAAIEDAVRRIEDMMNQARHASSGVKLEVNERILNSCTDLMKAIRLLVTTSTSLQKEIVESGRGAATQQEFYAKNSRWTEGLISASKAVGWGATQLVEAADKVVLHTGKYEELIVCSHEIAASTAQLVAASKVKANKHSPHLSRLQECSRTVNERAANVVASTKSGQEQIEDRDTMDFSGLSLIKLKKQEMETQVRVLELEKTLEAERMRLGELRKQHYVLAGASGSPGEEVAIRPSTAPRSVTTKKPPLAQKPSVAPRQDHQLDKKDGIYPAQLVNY
UniProt Q99729: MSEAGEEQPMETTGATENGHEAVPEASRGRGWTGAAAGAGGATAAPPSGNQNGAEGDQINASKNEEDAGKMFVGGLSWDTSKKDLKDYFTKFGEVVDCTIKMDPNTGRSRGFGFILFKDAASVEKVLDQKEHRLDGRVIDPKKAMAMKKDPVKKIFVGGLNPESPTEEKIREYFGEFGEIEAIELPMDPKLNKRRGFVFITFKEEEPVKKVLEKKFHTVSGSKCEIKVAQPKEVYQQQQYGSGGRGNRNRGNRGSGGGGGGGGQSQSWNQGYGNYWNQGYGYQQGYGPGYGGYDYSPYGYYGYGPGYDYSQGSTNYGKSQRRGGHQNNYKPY
UniProt O43390: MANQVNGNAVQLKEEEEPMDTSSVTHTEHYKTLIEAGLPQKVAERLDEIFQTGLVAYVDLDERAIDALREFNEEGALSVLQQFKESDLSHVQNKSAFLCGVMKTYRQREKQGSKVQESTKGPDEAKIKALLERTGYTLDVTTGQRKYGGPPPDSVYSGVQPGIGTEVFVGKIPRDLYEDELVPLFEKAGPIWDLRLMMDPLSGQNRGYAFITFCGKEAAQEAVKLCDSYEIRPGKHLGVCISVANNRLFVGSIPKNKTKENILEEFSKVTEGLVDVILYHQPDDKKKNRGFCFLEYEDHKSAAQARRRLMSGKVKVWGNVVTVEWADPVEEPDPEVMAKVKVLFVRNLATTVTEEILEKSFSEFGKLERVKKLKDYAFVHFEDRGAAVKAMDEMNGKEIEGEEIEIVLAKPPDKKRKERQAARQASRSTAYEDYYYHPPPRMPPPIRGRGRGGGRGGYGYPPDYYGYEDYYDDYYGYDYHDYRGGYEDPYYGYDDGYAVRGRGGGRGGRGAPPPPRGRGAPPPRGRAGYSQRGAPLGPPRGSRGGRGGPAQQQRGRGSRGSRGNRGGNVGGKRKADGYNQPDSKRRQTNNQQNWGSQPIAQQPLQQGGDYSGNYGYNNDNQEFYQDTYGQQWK
UniProt P38646: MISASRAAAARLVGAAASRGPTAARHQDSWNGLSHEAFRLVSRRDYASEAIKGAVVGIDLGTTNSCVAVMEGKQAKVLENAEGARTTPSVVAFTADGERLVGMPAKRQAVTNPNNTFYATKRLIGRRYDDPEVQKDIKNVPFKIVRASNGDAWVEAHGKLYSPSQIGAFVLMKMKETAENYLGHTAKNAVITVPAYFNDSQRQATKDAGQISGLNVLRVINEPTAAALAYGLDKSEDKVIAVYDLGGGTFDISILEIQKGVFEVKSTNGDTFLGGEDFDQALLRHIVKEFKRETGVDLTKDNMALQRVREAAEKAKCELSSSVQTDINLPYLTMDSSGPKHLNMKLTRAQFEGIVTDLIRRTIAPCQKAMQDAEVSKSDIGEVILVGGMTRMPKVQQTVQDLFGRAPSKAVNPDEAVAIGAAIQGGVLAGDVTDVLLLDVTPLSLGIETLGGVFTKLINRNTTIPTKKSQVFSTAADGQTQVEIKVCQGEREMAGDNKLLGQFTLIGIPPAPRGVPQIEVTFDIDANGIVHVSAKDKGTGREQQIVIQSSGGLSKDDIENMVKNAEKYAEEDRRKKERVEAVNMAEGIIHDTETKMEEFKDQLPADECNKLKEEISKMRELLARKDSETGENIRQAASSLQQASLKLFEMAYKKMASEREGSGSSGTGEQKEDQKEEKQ
UniProt Q9NP66: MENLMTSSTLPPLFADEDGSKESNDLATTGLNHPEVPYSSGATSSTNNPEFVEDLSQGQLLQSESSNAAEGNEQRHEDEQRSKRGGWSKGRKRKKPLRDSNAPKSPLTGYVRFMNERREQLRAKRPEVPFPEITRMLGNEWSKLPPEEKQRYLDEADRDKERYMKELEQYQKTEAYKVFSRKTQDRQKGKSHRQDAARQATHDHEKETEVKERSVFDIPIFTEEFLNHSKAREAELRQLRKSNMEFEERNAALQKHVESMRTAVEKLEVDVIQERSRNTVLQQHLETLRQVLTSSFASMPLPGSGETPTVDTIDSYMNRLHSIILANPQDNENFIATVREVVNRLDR

Key:
Test in all cases: log2 fold change, soluble protein after heating vs DMSO (PISA); higher = thermal stabilisation; K562 cells, 10 uM, 30 min; active = over 0.2 and 3.5 SD of the protein, either way, in both replicates (recomputed)
[1] = compound: Cc1ccc(NC(=O)c2ccc(CN3CC[C@H](N(C)C)C3)c(C(F)(F)F)c2)cc1Nc1nccc(-c2cncnc2)n1 [bafetinib]
Outline: (§1)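 K562 cells at 2×10^6 cells/mL were exposed to 10 μM compound for 30 min, then aliquots were heated for 3 min across 48°C-58°C, pooled, and extracted in PBS containing 0.5% NP-40 at 4°C. The supernatant after 21,000xg for 90 min was taken as soluble protein and measured by TMTpro 16plex LC-MS/MS with channel sums equalised. Thermal stability is reported relative to control samples, with values from duplicates. Fold changes are given on a log2 scale.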

[2] = compound: Cc1cccc(CC(=O)N2CCc3c2ccc(-c2cn(C)c4ncnc(N)c24)c3F)n1
Outline: as §1

[3] = compound: Cc1cn(-c2cc(NC(=O)c3ccc(C)c(Nc4nccc(-c5cccnc5)n4)c3)cc(C(F)(F)F)c2)cn1 [nilotinib]
Outline: as §1

[4] = compound: Cc1nc(Nc2n[nH]c3c2CN(C(=O)N[C@H](CN(C)C)c2ccccc2)C3(C)C)c2sccc2n1
Outline: as §1

[5] = compound: Cc1nc(Nc2ncc(C(=O)Nc3c(C)cccc3Cl)s2)cc(N2CCN(CCO)CC2)n1 [dasatinib]
Outline: as §1

[6] = compound: Cc1ncc(-c2ccnc(Nc3ccc(S(C)(=O)=O)cc3)n2)n1C(C)C
Outline: as §1

[7] = compound: Cn1cc(-c2ccc3c(c2)CCN3C(=O)Cc2cccc(C(F)(F)F)c2)c2c(N)ncnc21
Outline: as §1

[8] = compound: Cn1cc(-c2ccc3nnc(C(F)(F)c4ccc5ncccc5c4)n3n2)cn1
Outline: as §1

[9] = compound: Cn1cncc1[C@@](N)(c1ccc(Cl)cc1)c1ccc2c(c1)c(-c1cccc(Cl)c1)cc(=O)n2C [tipifarnib]
Outline: as §1

[10] = compound: FC(F)(F)c1ccc(/C=C/c2nc(COc3ccc(CCCCn4ccnn4)cc3)co2)cc1 [mubritinib]
Outline: as §1

Measured: log2 fold change

HSPA5 (UniProt P11021)
inactive: [1] 0.001 | [2] -0.032 | [3] 0.028 | [4] 0.014 | [5] 0.024 | [6] -0.071 | [7] 0.02 | [8] 0.005 | [9] 0.046 | [10] -0.025

HSDL1 (UniProt Q3SXM5)
inactive: [1] -0.052 | [2] -0.032 | [3] -0.045 | [4] 0.013 | [5] 0.004 | [6] -0.013 | [7] 0.094 | [8] -0.062 | [9] -0.036 | [10] 0.035

IARS2 (UniProt Q9NSE4)
inactive: [1] -0.02 | [2] 0.019 | [3] 0.025 | [4] -0.008 | [5] 0.016 | [6] 0.004 | [7] 0.008 | [8] 0.014 | [9] 0.018 | [10] 0.02

HSPA8 (UniProt P11142)
inactive: [1] 0.008 | [2] -0.008 | [3] 0.081 | [4] -0.001 | [5] 0.03 | [6] -0.003 | [7] -0.029 | [8] -0.003 | [9] 0.037 | [10] -0.002

HIST2H3A (UniProt Q71DI3)
inactive: [1] 0.198 | [2] -0.183 | [3] -0.054 | [4] -0.068 | [5] 0.215 | [6] -0.032 | [7] -0.258 | [8] -0.054 | [9] 0.031 | [10] -0.037

HNRNPA3 (UniProt P51991)
inactive: [1] 0.122 | [2] 0.009 | [3] -0.004 | [4] 0.064 | [5] 0.199 | [6] 0.21 | [7] -0.495 | [8] -0.233 | [9] 0.138 | [10] -0.262

HNRNPF (UniProt P52597)
inactive: [1] -0.013 | [2] 0.056 | [3] -0.106 | [4] -0.178 | [5] -0.15 | [6] -0.066 | [7] 0.024 | [8] -0.057 | [9] -0.051 | [10] -0.022

HIP1R (UniProt O75146)
inactive: [1] -0.021 | [2] 0.043 | [3] -0.11 | [4] 0.016 | [5] -0.144 | [6] -0.019 | [7] 0.022 | [8] -0.013 | [9] -0.075 | [10] 0.036

HNRNPAB isoform 3 (UniProt Q99729)
inactive: [1] 0.038 | [2] -0.034 | [3] 0.019 | [4] 0.174 | [5] 0.247 | [6] 0.163 | [7] -0.127 | [8] -0.064 | [9] 0.06 | [10] -0.064

HNRNPR isoform 2 (UniProt O43390)
inactive: [1] 0.041 | [2] -0.037 | [3] -0.079 | [4] 0 | [5] 0.161 | [6] 0.001 | [7] -0.21 | [8] -0.073 | [9] 0.097 | [10] -0.039

HSPA9 (UniProt P38646)
inactive: [1] -0.109 | [2] 0 | [3] -0.011 | [4] -0.008 | [5] 0.016 | [6] -0.013 | [7] 0.023 | [8] 0 | [9] 0.041 | [10] -0.049

HMG20A (UniProt Q9NP66)
inactive: [1] -0.012 | [2] -0.05 | [3] -0.046 | [4] -0.02 | [5] 0.052 | [6] -0.012 | [7] -0.05 | [8] -0.224 | [9] 0.064 | [10] -0.021

HSPA4 (UniProt P34932)
inactive: [1] -0.047 | [2] -0.005 | [3] 0.005 | [4] -0.017 | [5] -0.055 | [6] 0.001 | [7] 0.026 | [8] 0.015 | [9] -0.027 | [10] 0.015

HIKESHI (UniProt Q53FT3)
inactive: [1] -0.003 | [2] 0.02 | [3] -0.062 | [4] 0.018 | [5] 0.079 | [6] 0.009 | [7] 0.043 | [8] 0.065 | [9] -0.043 | [10] 0.025
